{"source": "patent US20230241057A1", "about": "“COMPOUNDS FOR THE PREVENTION, TREATMENT AND DIAGNOSIS OF THROMBI” (INSERM (INSTITUT NATIONAL DE LA SANTÉ ET DE LA RECHERCHE …, priority 2020, published 2023)", "key": {"[1]": {"test_system": "thrombus material (DNA and proteins)", "details": "coated nitinol disks vs bare metal; thrombus slice 5 minutes at 37° C. in human plasma; Hoechst 33342 / Evans Blue staining"}, "[2]": {"test_system": "extracellular chromatin (NETs)", "assay": "Extracellular chromatin (NETs) binding to coated nitinol disks, Sytox Green staining", "parameters": "species or system human", "details": "ratio of chromatin binding to platelet binding (% of max)", "description": "Nitinol disks are left untouched (bare metal) or coated with the tested chromatin ligands following a polydopamine, DBCO-PEG4-amine and azide derivative ligand sequential dip-coating layering procedure.\nExtracellular chromatin adhering to the disk surface was stained with the cell impermeant nuclear dye Sytox Green.\nEach dot corresponds to the mean binding (% of max, mean±SEM) of chromatin (X-axis) and platelet (Y-axix) with the standard error bars parallel to the respective axis.\nDifferent linkers were combined with piperaquine and the resulting azide derivatives were used for coating nitinol disks (N=6 for each compound), following the described 3-step dip-coating procedure. Platelet adhesion (left panel) was evaluated by analyzing the surface and intensity of the phalloidin staining (green fluorescence) after immersion of the disks (N^o=6/coating) for 10 min in blood withdrawn in PPAK (thrombin inhibitor providing a transient anticoagulation). The binding of extracellular chromatin was evaluated by applying for 3 minutes the disks on the bottom of wells in which fresh human neutrophils were stimulated with nigericin for 4 hours, to promote the formation of neutrophil extracellular traps (NETs). Extracellular chromatin was stained with the cell impermeant nuclear dye Sytox Green."}}, "data": [{"smiles": "O=C(O)c1cn(C2CC2)c2cc(N3CCNCC3)c(F)cc2c1=O", "note": "[Ciprofloxacin, reference compound]", "values": [{"measurement": "DNA and proteins captured from the thrombus (Integrated Density)", "setting": "[1]", "result": "capture more DNA and proteins"}, {"measurement": "Chromatin/Platelet binding ratio", "setting": "[2]", "result": 0.86}]}]}
